Experimental data as given in PubChem BioAssay (NCATS).
Inconclusive results, whose numbers are uncertain, are shown with a selection of clear calls. Potencies of inconclusive entries are doubtful fits and often do not repeat. The source made the active and inactive calls. Calls follow the shape of the dose curve; as a rule, active = well fitted curve in the direction sought with a large enough effect; inconclusive = small, poorly fitted or top-dose-only effect, or another doubt; inactive = no such curve, though single readings can be large; an effect the other way counts as inactive or inconclusive.

Amino acid sequences for entries named in this document (tags omitted). A change or cut given only in a name is not applied to a line headed by its entry.
UniProt Q8WZA2: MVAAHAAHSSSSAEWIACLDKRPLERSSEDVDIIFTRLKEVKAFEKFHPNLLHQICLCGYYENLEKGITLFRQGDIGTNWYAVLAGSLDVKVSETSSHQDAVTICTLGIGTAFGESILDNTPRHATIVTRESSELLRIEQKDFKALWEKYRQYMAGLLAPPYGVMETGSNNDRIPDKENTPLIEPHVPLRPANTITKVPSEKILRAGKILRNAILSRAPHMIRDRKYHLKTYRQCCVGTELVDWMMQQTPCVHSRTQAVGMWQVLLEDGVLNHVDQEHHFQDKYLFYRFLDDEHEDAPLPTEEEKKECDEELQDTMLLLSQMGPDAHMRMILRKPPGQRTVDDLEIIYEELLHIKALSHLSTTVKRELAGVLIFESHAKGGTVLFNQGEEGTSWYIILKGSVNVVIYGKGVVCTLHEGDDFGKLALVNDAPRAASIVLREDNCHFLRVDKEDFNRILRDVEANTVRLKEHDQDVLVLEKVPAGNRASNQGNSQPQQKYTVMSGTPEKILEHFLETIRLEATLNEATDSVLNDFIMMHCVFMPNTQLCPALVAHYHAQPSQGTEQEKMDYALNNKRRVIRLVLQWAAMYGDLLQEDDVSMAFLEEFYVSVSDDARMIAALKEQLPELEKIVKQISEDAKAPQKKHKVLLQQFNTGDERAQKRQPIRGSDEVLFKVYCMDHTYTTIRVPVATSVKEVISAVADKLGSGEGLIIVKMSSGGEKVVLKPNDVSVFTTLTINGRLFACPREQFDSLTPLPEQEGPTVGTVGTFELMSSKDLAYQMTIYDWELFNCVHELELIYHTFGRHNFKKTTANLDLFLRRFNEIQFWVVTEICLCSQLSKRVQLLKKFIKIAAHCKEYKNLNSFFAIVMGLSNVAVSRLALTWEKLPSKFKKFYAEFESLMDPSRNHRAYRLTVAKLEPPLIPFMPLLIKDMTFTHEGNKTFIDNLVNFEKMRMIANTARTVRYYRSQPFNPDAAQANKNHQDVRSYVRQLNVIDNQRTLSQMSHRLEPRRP

Each compound was assayed against Rap guanine nucleotide exchange factor 4 (Homo sapiens) (UniProt Q8WZA2) (assay: Confirmatory qHTS for antagonist of cAMP-regulated guanine nucleotide exchange factor 4 (EPAC2) (AID 1645885; also: nearly all actives have a fitted effect of over 25% in size; as to activity change, negative = inhibition: % is scaled to controls: 0 for no effect and ±100 for the full control effect)). Conditions: EPAC2 Rap1B-BODIPY-GDP exchange fluorescence, biochemical; activity change, negative = inhibition: at 12.7 µM (top of the series) unless noted; series mostly up to 114 µM.
Potency is read from the fitted curve at half-maximal effect.

Row | Structure (SMILES) | Potency
1 | COc1cc(/C=C2\C(=N)N3N=C(S(C)(=O)=O)SC3=NC2=O)ccc1OS(=O)(=O)c1ccc(C)cc1 | inconclusive: 42.6 µM [inhibitor, partial curve]
2 | O=C(CN1C(=O)/C(=C2/SC(=S)N(CCS(=O)(=O)O)C2=O)c2ccccc21)Nc1cccc(Br)c1 | inconclusive: 60.1 µM [inhibitor, partial curve]
3 | Fc1ccc(/C=C2\CCCC3=C2Nc2ncnn2C3c2ccc(F)cc2)cc1 (centres undefined) | inactive
4 | CC(C)[C@H](NC(=O)NCCc1ccc(F)cc1)C(=O)O | inactive
5 | CC(C)(C(=O)N1CCC1(C)C(=O)NS(=O)(=O)c1ccccc1Cl)c1ccccc1 (centres undefined) | inactive
6 | O=C(c1sc2cc(F)ccc2c1Cl)N1CCN(c2ccccc2)CC1 | inconclusive: 84.9 µM [inhibitor, single point]
7 | O=C(COC(=O)c1c2c(nc3ccccc13)/C(=C\c1ccco1)CC2)NC1CCCC1 | inconclusive: 95.3 µM [inhibitor, single point]
8 | COc1ccc(OC)c(Nc2cc3ccccc3c(=O)[nH]2)c1 | inactive
9 | CCN1/C(=C\c2ccc3ccccc3[n+]2CC)Sc2cc(C)ccc21 | inconclusive: 53.6 µM [inhibitor, partial curve, poor fit]
10 | O=C(Nc1cccs1)Nc1ccccc1Cl | inactive
11 | Cc1nc2ccccc2c(=O)n1/N=C/c1ccccc1O | inactive
12 | CCOC(=O)C1=CCN(S(=O)(=O)c2ccccc2C)C1c1ccc(Cl)c(Cl)c1 (centres undefined) | inconclusive: 2.39 µM [inhibitor, partial curve, poor fit]
13 | COc1ccc(CN(C)C(=O)c2ccc(OCC(=O)Nc3cccc(C(F)(F)F)c3)c(OC)c2)c(OC)c1 | inconclusive: 42.6 µM [inhibitor, full curve]
14 | CC(C)CCNC(=O)C(CC(C)C)N(Cc1ccc2c(c1)OCO2)C(=O)c1snc(C(N)=O)c1N (centres undefined) | inconclusive: 23.9 µM [inhibitor, full curve]
15 | Cc1cccc(NC(=O)CSCC(=O)N(C)CCOc2ccc(Cl)cc2)c1 | inactive
16 | CCn1c(C(=O)N2CCc3ccccc3C2)cc2sccc21 | active: 53.6 µM
17 | CCOc1ccccc1Cn1c(=O)oc2ccc(C)cc21 | inactive
18 | CCCCC1CC2=C(C(=O)OC(C)(C)O2)C(c2ccc(Cl)cc2)O1 (centres undefined) | inconclusive: 47.8 µM [inhibitor, partial curve]
19 | Cc1cccc(C(=O)Nc2sc3c(c2C(=O)O)CCCC3)c1 | inactive

Two entries from above, as tab-separated lines:
Row	Structure (SMILES)	Potency
14	CC(C)CCNC(=O)C(CC(C)C)N(Cc1ccc2c(c1)OCO2)C(=O)c1snc(C(N)=O)c1N (centres undefined)	inconclusive: 23.9 µM [inhibitor, full curve]
15	Cc1cccc(NC(=O)CSCC(=O)N(C)CCOc2ccc(Cl)cc2)c1	inactive

3 entries out of the list, sorted by molar mass, rising.
Row | Structure (SMILES) | Potency
18 | CCCCC1CC2=C(C(=O)OC(C)(C)O2)C(c2ccc(Cl)cc2)O1 (centres undefined) | inconclusive: 47.8 µM [inhibitor, partial curve]
6 | O=C(c1sc2cc(F)ccc2c1Cl)N1CCN(c2ccccc2)CC1 | inconclusive: 84.9 µM [inhibitor, single point]
2 | O=C(CN1C(=O)/C(=C2/SC(=S)N(CCS(=O)(=O)O)C2=O)c2ccccc21)Nc1cccc(Br)c1 | inconclusive: 60.1 µM [inhibitor, partial curve]

What follows are compounds tested against Rap guanine nucleotide exchange factor 3 (Homo sapiens) (UniProt O95398) (assay: Counterscreen qHTS for agonist of cAMP-regulated guanine nucleotide exchange factor 3 (EPAC1) (AID 1645889; also: nearly all actives have a fitted effect of over 40% in size; as to activation: % of control where 0% means no effect)). Conditions: EPAC1 Rap1B-BODIPY-GDP exchange, fluorescence; activation: at 154 µM (top of the series) unless noted.
How it was run: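 Rap1B-BODIPY-GDP 250 nM + GDP 50 uM; cpds 7-pt, final 9.74 nM–152 uM (activator mode) or from 7.32 nM upwards (inhibitor mode); RT; FI 480/540 nm at 5 and 30 min, then ± cAMP, reread.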

Row | Structure (SMILES) | activation | Potency
20 | Cc1cccc(OC(=O)Nc2ccc(C(=O)O)c(O)c2)c1 | inactive: -3.96% [at 30.8 µM] | 
21 | CC[C@@H]1CC=C[C@H]2[C@H]1C(=O)N(Cc1ccccc1)[C@H]2c1ccc(OC)c(Cl)c1 |  | inconclusive: 0.251 µM [activator, full curve, poor fit]
22 | O=C(O)/C=C\C(=O)Nc1ccccc1C#Cc1ccc(Br)cc1 |  | inconclusive: 1.41 µM [activator, full curve, poor fit]
23 | CC(=O)CCc1oc2ccccc2c1-c1ccccc1 | inactive: -0.404% [at 30.8 µM] | 
24 | COC(=O)/C(=C/Nc1ccc(O)cc1)[N+](=O)[O-] |  | inconclusive: 28.2 µM [activator, partial curve, poor fit]
25 | CCCCc1ccc(NC(=O)CN2C(=O)C3CCCCC3C2=O)cc1 (centres undefined) |  | inactive
26 | Cc1cc(NC(=O)CS(=O)(=O)c2cn(Cc3cccc(Br)c3)c3ccccc23)no1 |  | inconclusive: 10 µM [activator, partial curve, poor fit]
27 | CC(C)C(NC(=O)c1ccccc1)C(=O)OCn1nnc2ccccc2c1=O (centres undefined) | inconclusive: 57.3% [activator] | 
28 | Cc1ccccc1NS(=O)(=O)c1ccc2c3c(cccc13)C(=O)N2C |  | inconclusive: 0.01 µM [activator, full curve, poor fit]
29 | Cc1ccc(-c2csc(/C(C#N)=C(\O)CCl)n2)cc1 | inactive: 14.1% [at 30.8 µM] | 
30 | Cc1oc2ccc(O)c(CN3CCCCC3)c2c1C(=O)Nc1cccc(C(F)(F)F)c1 |  | inconclusive: 28.2 µM [activator, partial curve, poor fit]
31 | N#Cc1c(NC(=O)C2CC=CCC2C(=O)O)sc2c1CCCCCC2 (centres undefined) | inactive: 6.58% [at 30.8 µM] | 
32 | Cc1ccc(/C=C/C(=O)Nc2nnc(SCc3ccc(C#N)cc3)s2)o1 |  | inactive
33 | COc1cccc(COC(=O)CSCC(=O)Nc2cccc(C)c2)c1OC | inconclusive: 31.5% [activator] | 
34 | O=C(COc1ccc2ccccc2c1)Nc1cccc(C(=O)Nc2ccccc2C(=O)O)c1 |  | inactive
35 | O=C(Nc1cccc(NC(=O)c2cccs2)c1)c1ccc(Br)o1 |  | inconclusive: 5.62 µM [activator, full curve, poor fit]
36 | CCc1nc2c(OCc3ccc(C(=O)OC)cc3)cccn2c1N(C)C(=O)c1ccc(OC)cc1 | inactive: 20% [at 30.8 µM] | 
37 | Cc1cccc(N2C(=O)C(O)=C(C(=O)c3cccs3)C2c2cccc(Oc3ccccc3)c2)n1 (centres undefined) |  | inactive
38 | CC(C)CCNC(=O)c1cnn2c(C(F)(F)F)cc(-c3ccco3)nc12 |  | inactive
39 | COc1ccc(C2NC(=O)N(C)C3=C2C(=O)N(c2cccc(Cl)c2)C3)cc1 (centres undefined) | inconclusive: 71.3% [activator] | 

Row | Structure (SMILES) | activation | Potency
40 | CCC1=NN2C(=N)/C(=C/c3ccc(OS(=O)(=O)c4ccccc4)cc3)C(=O)N=C2S1 | inconclusive: 41.4% [activator] | 
41 | COc1cc(/C=C2\C(=N)N3N=C(S(C)(=O)=O)SC3=NC2=O)ccc1OS(=O)(=O)c1ccc(C)cc1 | inconclusive: 46.5% [activator] | 
42 | O=C(CN1C(=O)/C(=C2/SC(=S)N(CCS(=O)(=O)O)C2=O)c2ccccc21)Nc1cccc(Br)c1 | inconclusive: 30.2% [activator] | 
43 | Fc1ccc(/C=C2\CCCC3=C2Nc2ncnn2C3c2ccc(F)cc2)cc1 (centres undefined) |  | inconclusive: 0.447 µM [activator, full curve, poor fit]
44 | CC(C)[C@H](NC(=O)NCCc1ccc(F)cc1)C(=O)O | inconclusive: 51% [activator] [at 30.8 µM] | 
45 | CC(C)(C(=O)N1CCC1(C)C(=O)NS(=O)(=O)c1ccccc1Cl)c1ccccc1 (centres undefined) | inactive: 1.99% [at 30.8 µM] | 
46 | O=C(c1sc2cc(F)ccc2c1Cl)N1CCN(c2ccccc2)CC1 |  | inconclusive: 10 µM [activator, partial curve, poor fit]
47 | O=C(COC(=O)c1c2c(nc3ccccc13)/C(=C\c1ccco1)CC2)NC1CCCC1 |  | inactive
48 | COc1ccc(OC)c(Nc2cc3ccccc3c(=O)[nH]2)c1 |  | inconclusive: 2 µM [activator, partial curve]
49 | CCN1/C(=C\c2ccc3ccccc3[n+]2CC)Sc2cc(C)ccc21 | inconclusive: 26.9% [activator] | 
50 | O=C(Nc1cccs1)Nc1ccccc1Cl | inconclusive: 56.7% [activator] [at 30.8 µM] | 
51 | Cc1nc2ccccc2c(=O)n1/N=C/c1ccccc1O |  | inconclusive: 0.316 µM [activator, full curve, poor fit]
52 | CCOC(=O)C1=CCN(S(=O)(=O)c2ccccc2C)C1c1ccc(Cl)c(Cl)c1 (centres undefined) |  | inconclusive: 11.2 µM [activator, full curve, poor fit]
53 | COc1ccc(CN(C)C(=O)c2ccc(OCC(=O)Nc3cccc(C(F)(F)F)c3)c(OC)c2)c(OC)c1 |  | inactive
54 | CC(C)CCNC(=O)C(CC(C)C)N(Cc1ccc2c(c1)OCO2)C(=O)c1snc(C(N)=O)c1N (centres undefined) |  | inactive
55 | Cc1cccc(NC(=O)CSCC(=O)N(C)CCOc2ccc(Cl)cc2)c1 |  | inactive
56 | CCn1c(C(=O)N2CCc3ccccc3C2)cc2sccc21 |  | inactive
57 | CCOc1ccccc1Cn1c(=O)oc2ccc(C)cc21 |  | inactive
58 | CCCCC1CC2=C(C(=O)OC(C)(C)O2)C(c2ccc(Cl)cc2)O1 (centres undefined) | inconclusive: 3.8% [activator] | 
59 | Cc1cccc(C(=O)Nc2sc3c(c2C(=O)O)CCCC3)c1 |  | inactive
